# Measurements: PubChem BioAssay AID602447 (National Center for Advancing Translational Sciences (NCATS), 2012)
# The inconclusive results got no clear call from the source.
# Biological target: Beta-2 adrenergic receptor (Homo sapiens) (UniProt P07550)
# Assay: qHTS for antagonists of the Thyroid Stimulation Hormone Receptor: Hit Validation with Beta-2 Adrenergic Receptor
# Conditions: B2AR-expressing cells, cAMP HTRF, antagonist counterscreen; stronger effect = higher value; call rule not given here
# From the text: The thyroid-stimulating hormone receptor (TSHR) is a member of the 7 trans-membrane-spanning receptor (7TMR) family of cell surface receptors. TSHR-mediated hyperthyroidism is important in thyroid pathology. The development of small molecule antagonists of TSHR may lead to therapeutic approaches for TSHR-mediated hyperthyroidism caused by constitutively activating mutations or stimulating auto-antibodies associated with Graves' disease. Graves' disease is the leading cause of hyperthyroidism and is caused by autoantibodies that stimulate TSHR (TsAbs) causing thyroid growth and unregulated overproduction of thyroid hormones and existing treatments have liabilities (agranulocytosis). In addition, TSHRs are known to be expressed in multiple extrathyroidal tissues including bone, brain, kidney, testis, fat and cells of the immune system but the role of the TSHR in these tissues is not clear. Therefore, TSHR antagonists/inverse agonists could be used as probes of extrathyroidal TSHR function. Finally, TSHR inverse agonists, which are a subclass of antagonists that inhibit agonist-independent (or basal or constitutive) TSHR signaling, could be used to inhibit TSH-independent signaling in patients with recurrent or metastatic thyroid cancer who are receiving thyroid hormone to suppress TSH. […]
smiles,measurement,value
COC(=O)C1=C(c2ccc(-c3ccccc3)c(F)c2)C[C@@H]2CC[C@H]1N2C(=O)NCCOc1ccccc1,max inhibition,inconclusive: 45%
